Consider two sequences from paper PMC11087511.

In data set [1] the test system is human alpha-thrombin (human). Put plainly: BLI. The conditions noted are these: over 100-fold higher Kd than HD22-7A-DAB, aptamer domain only; 5' C6-amine; commercial protein; label: 3' TEG-biotin; folded or branched DNA.
Data set [2] has as its system human alpha-thrombin (human). The experiment in a line: cited. The conditions noted are these: commercial protein; folded or branched DNA.

For some assays here: Weaker means in comparison with the reference protein, sequence or condition of that experiment. For some assays here: Construct, isoform or probe ends are uncertain for at least one entry.

For “AAAAAAAAGTCCGTGGTAGGGCAGGTTGGGGTGACT [Bio-HD22-7A-NH2]”, the binding result in data set [1] is “binds more weakly”.
Broadly, the Kd is the equilibrium constant for the complex coming apart. A high value points to lower affinity. AGTCCGTGGTAGGGCAGGTTGGGGTGACT [HD22]: the Kd in data set [2] stood at 0.5 nM.
